# Results: the supplement of paper PMC8728848
# This is one part of the list.
# B1: HopZSSI-T (Helicobacter pylori), B5Z6D0 (protein)
# chain: MGSSHHHHHHSSGLVPRGSHMENLYFQGEDNGFFISAGYQIGEAAQMVKNTGELKKLSDTYENLSNLLTNFNNLNQAVTNASSPSEINAAIDNLKANTQGLTGEKTNSPAYQAVYLALNAAVGLWNVIAYNVQCGPGNSSQQSVTFEGQPGHNSSSINCNLTGYNNGVSGPLSIDNFKQLNQAYQVLQQALKQGVPVLNNTNQKIEVKVTTQTNGQSSKETTTTTTTNDAQTLLQEASKMIDVLTTNCPWVNHNPGQNGGAPWGLIRQECVSGFATEFSAVTSMIKNAQEIVTQAQSLNANQNNQNAPQDFNPYTSADRAFAQNMLNHAQAQAKILELADQMKKDLNTIPSQFITNYLAACRIDGTTPSQGVTNNTWGAGCAYVEETITALNNSLAHFGTQAEQIKQSELLARTILDFRGSLSTLNSTYNSITTTASNTPNSPFLKNLISQSTNPNNPGGLQAVYQVNQSAYSQLLSATQELGHNPFRRIGLISSQT
# Legend:
# Experiment in all cases: glycan array binding signal (z-score within array); higher = stronger binding
# Settings in all cases: glycan notation: IUPAC condensed, linker removed
# [1] = biological target: Fuc(a1-3)[Gal3S(b1-4)]GlcNAc6S
# Method in brief: (§1)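 Glycan array data were curated from 3228 arrays in the Consortium for Functional Glycomics database and kept only where the protein sequence was available. Glycan names were converted to IUPAC-condensed notation, and columns mapping to the same glycan were averaged. The binding signal is a within-array Z-score, averaged across arrays of the same protein sequence at different concentrations or buffers and across linkers. Negative Z-scores can be read as non-binding.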
# [2] = biological target: Fuc(a1-3)[GalNAc(b1-4)]GlcNAc
# Method in brief: as §1
# [3] = biological target: Fuc(a1-3)[GalNAc(b1-4)]GlcNAc6S
# Method in brief: as §1
# Fuc(a1-4)GlcNAc = biological target: Fuc(a1-4)GlcNAc
# Method in brief: as §1
# Fuc(b1-3)GlcNAc = biological target: Fuc(b1-3)GlcNAc
# Method in brief: as §1
# Gal(a1-2)Gal = biological target: Gal(a1-2)Gal
# Method in brief: as §1
# Gal(a1-3)Gal = biological target: Gal(a1-3)Gal
# Method in brief: as §1
# Gal(a1-3)Gal(b1-3)GlcNAc = biological target: Gal(a1-3)Gal(b1-3)GlcNAc
# Method in brief: as §1
# [4] = biological target: Gal(a1-3)Gal(b1-3)GlcNAc(b1-2)Man
# Method in brief: as §1
# [5] = biological target: Gal(a1-3)Gal(b1-3)GlcNAc(b1-2)Man(a1-3)[Gal(a1-3)Gal(b1-3)GlcNAc(b1-2)Man(a1-6)]Man(b1-4)GlcNAc(b1-4)GlcNAc
# Method in brief: as §1
# [6] = biological target: Gal(a1-3)Gal(b1-3)GlcNAc(b1-3)GalNAc
# Method in brief: as §1
# [7] = biological target: Gal(a1-3)Gal(b1-3)GlcNAc(b1-6)GalNAc
# Method in brief: as §1
# [8] = biological target: Gal(a1-3)Gal(b1-3)[Fuc(a1-4)]GlcNAc(b1-2)Man(a1-3)[Gal(a1-3)Gal(b1-3)[Fuc(a1-4)]GlcNAc(b1-2)Man(a1-6)]Man(b1-4)GlcNAc(b1-4)GlcNAc
# Method in brief: as §1
# Gal(a1-3)Gal(b1-4)Glc = biological target: Gal(a1-3)Gal(b1-4)Glc
# Method in brief: as §1
# Gal(a1-3)Gal(b1-4)GlcNAc = biological target: Gal(a1-3)Gal(b1-4)GlcNAc
# Method in brief: as §1
# [9] = biological target: Gal(a1-3)Gal(b1-4)GlcNAc(b1-2)Man
# Method in brief: as §1
# [10] = biological target: Gal(a1-3)Gal(b1-4)GlcNAc(b1-2)Man(a1-3)[Gal(a1-3)Gal(b1-4)GlcNAc(b1-2)Man(a1-6)]Man(b1-4)GlcNAc(b1-4)GlcNAc
# Method in brief: as §1
# [11] = biological target: Gal(a1-3)Gal(b1-4)GlcNAc(b1-3)GalNAc
# Method in brief: as §1
# [12] = biological target: Gal(a1-3)Gal(b1-4)GlcNAc(b1-6)GalNAc
# Method in brief: as §1
# [13] = biological target: Gal(a1-3)Gal(b1-4)[Fuc(a1-3)]GlcNAc
# Method in brief: as §1
# [14] = biological target: Gal(a1-3)Gal(b1-4)[Fuc(a1-3)]GlcNAc(b1-2)Man(a1-3)[Gal(a1-3)Gal(b1-4)[Fuc(a1-3)]GlcNAc(b1-2)Man(a1-6)]Man(b1-4)GlcNAc(b1-4)GlcNAc
# Method in brief: as §1
# Gal(a1-3)GalNAc = biological target: Gal(a1-3)GalNAc
# Method in brief: as §1
# [15] = biological target: Gal(a1-3)[Gal(a1-4)]Gal(b1-4)GlcNAc
# Method in brief: as §1
# [16] = biological target: Gal(a1-4)Gal(b1-3)GlcNAc(b1-2)Man(a1-3)[Gal(a1-4)Gal(b1-3)GlcNAc(b1-2)Man(a1-6)]Man(b1-4)GlcNAc(b1-4)GlcNAc
# Method in brief: as §1
# Gal(a1-4)Gal(b1-4)Glc = biological target: Gal(a1-4)Gal(b1-4)Glc
# Method in brief: as §1
# Gal(a1-4)Gal(b1-4)GlcNAc = biological target: Gal(a1-4)Gal(b1-4)GlcNAc
# Method in brief: as §1
# [17] = biological target: Gal(a1-4)Gal(b1-4)GlcNAc(b1-2)Man(a1-3)[Gal(a1-4)Gal(b1-4)GlcNAc(b1-2)Man(a1-6)]Man(b1-4)GlcNAc(b1-4)GlcNAc
# Method in brief: as §1
# [18] = biological target: Gal(a1-4)Gal(b1-4)GlcNAc(b1-3)Gal(b1-4)Glc
# Method in brief: as §1
# Gal(a1-4)GlcNAc = biological target: Gal(a1-4)GlcNAc
# Method in brief: as §1
# Gal(a1-6)Glc = biological target: Gal(a1-6)Glc
# Method in brief: as §1
# Gal(b1-2)Gal = biological target: Gal(b1-2)Gal
# Method in brief: as §1
# Gal(b1-3)Gal = biological target: Gal(b1-3)Gal
# Method in brief: as §1
# Gal(b1-3)Gal(b1-4)GlcNAc = biological target: Gal(b1-3)Gal(b1-4)GlcNAc
# Method in brief: as §1
# Gal(b1-3)GalNAc = biological target: Gal(b1-3)GalNAc
# Method in brief: as §1
# [19] = biological target: Gal(b1-3)GalNAc(a1-3)[Fuc(a1-2)]Gal(b1-4)Glc
# Method in brief: as §1
# [20] = biological target: Gal(b1-3)GalNAc(a1-3)[Fuc(a1-2)]Gal(b1-4)GlcNAc
# Method in brief: as §1
# Gal(b1-3)GalNAc(b1-3)Gal = biological target: Gal(b1-3)GalNAc(b1-3)Gal
# Method in brief: as §1
binder,measurement,setting,value
B1,glycan array binding signal (z-score),[1],-0.323
same,glycan array binding signal (z-score),[2],0.22
same,glycan array binding signal (z-score),[3],-0.687
same,glycan array binding signal (z-score),Fuc(a1-4)GlcNAc,-0.633
same,glycan array binding signal (z-score),Fuc(b1-3)GlcNAc,-0.276
same,glycan array binding signal (z-score),Gal(a1-2)Gal,1.3
same,glycan array binding signal (z-score),Gal(a1-3)Gal,0.3
same,glycan array binding signal (z-score),Gal(a1-3)Gal(b1-3)GlcNAc,-0.08
same,glycan array binding signal (z-score),[4],-0.282
same,glycan array binding signal (z-score),[5],-0.389
same,glycan array binding signal (z-score),[6],-0.82
same,glycan array binding signal (z-score),[7],0.157
same,glycan array binding signal (z-score),[8],0.896
same,glycan array binding signal (z-score),Gal(a1-3)Gal(b1-4)Glc,0.533
same,glycan array binding signal (z-score),Gal(a1-3)Gal(b1-4)GlcNAc,-0.403
same,glycan array binding signal (z-score),[9],-0.247
same,glycan array binding signal (z-score),[10],0.503
same,glycan array binding signal (z-score),[11],-0.615
same,glycan array binding signal (z-score),[12],-0.368
same,glycan array binding signal (z-score),[13],-0.695
same,glycan array binding signal (z-score),[14],-0.295
same,glycan array binding signal (z-score),Gal(a1-3)GalNAc,-0.363
same,glycan array binding signal (z-score),[15],-0.305
same,glycan array binding signal (z-score),[16],0.078
same,glycan array binding signal (z-score),Gal(a1-4)Gal(b1-4)Glc,0.988
same,glycan array binding signal (z-score),Gal(a1-4)Gal(b1-4)GlcNAc,0.912
same,glycan array binding signal (z-score),[17],0.08
same,glycan array binding signal (z-score),[18],0.496
same,glycan array binding signal (z-score),Gal(a1-4)GlcNAc,0.464
same,glycan array binding signal (z-score),Gal(a1-6)Glc,1.05
same,glycan array binding signal (z-score),Gal(b1-2)Gal,-0.182
same,glycan array binding signal (z-score),Gal(b1-3)Gal,-0.502
same,glycan array binding signal (z-score),Gal(b1-3)Gal(b1-4)GlcNAc,-0.409
same,glycan array binding signal (z-score),Gal(b1-3)GalNAc,-0.208
same,glycan array binding signal (z-score),[19],0.567
same,glycan array binding signal (z-score),[20],-0.081
same,glycan array binding signal (z-score),Gal(b1-3)GalNAc(b1-3)Gal,0.608

# Laid out differently: results already given
binder	measurement	setting	value
B1	glycan array binding signal (z-score)	Gal(a1-3)Gal(b1-4)Glc	0.533
same	glycan array binding signal (z-score)	Gal(a1-3)Gal(b1-4)GlcNAc	-0.403
